According to article PMC10715029, “Interaction and assembly of the DNA replication core proteins of Kaposi’s sarcoma-associated herpesvirus” (Microbiology Spectrum, 2023):
No constants are given. Whether binding was seen depends on the method and setting. In cells and extracts the contact can be indirect. Some binding calls cover weakened binding; strength is not graded here. Where a sequence is shown, tags or fusion partners need not be part of it.

Columns and labels:
Experiment in all cases: co-IP; 293T cells cotransfected with a GFP fusion and FLAG-tagged proteins for 24 h; lysis in 50 mM Tris-HCl pH 7.6, 150 mM NaCl, 1 mM EDTA, 1% Triton X-100, 1 mM PMSF; precipitation with GFP-Trap MA beads; blots with anti-GFP and anti-FLAG
[1] = target: T1, GFP-ORF9 (Kaposi's sarcoma-associated herpesvirus (KSHV, human herpesvirus 8)) (UniProt Q2HRD0)
T1 sequence: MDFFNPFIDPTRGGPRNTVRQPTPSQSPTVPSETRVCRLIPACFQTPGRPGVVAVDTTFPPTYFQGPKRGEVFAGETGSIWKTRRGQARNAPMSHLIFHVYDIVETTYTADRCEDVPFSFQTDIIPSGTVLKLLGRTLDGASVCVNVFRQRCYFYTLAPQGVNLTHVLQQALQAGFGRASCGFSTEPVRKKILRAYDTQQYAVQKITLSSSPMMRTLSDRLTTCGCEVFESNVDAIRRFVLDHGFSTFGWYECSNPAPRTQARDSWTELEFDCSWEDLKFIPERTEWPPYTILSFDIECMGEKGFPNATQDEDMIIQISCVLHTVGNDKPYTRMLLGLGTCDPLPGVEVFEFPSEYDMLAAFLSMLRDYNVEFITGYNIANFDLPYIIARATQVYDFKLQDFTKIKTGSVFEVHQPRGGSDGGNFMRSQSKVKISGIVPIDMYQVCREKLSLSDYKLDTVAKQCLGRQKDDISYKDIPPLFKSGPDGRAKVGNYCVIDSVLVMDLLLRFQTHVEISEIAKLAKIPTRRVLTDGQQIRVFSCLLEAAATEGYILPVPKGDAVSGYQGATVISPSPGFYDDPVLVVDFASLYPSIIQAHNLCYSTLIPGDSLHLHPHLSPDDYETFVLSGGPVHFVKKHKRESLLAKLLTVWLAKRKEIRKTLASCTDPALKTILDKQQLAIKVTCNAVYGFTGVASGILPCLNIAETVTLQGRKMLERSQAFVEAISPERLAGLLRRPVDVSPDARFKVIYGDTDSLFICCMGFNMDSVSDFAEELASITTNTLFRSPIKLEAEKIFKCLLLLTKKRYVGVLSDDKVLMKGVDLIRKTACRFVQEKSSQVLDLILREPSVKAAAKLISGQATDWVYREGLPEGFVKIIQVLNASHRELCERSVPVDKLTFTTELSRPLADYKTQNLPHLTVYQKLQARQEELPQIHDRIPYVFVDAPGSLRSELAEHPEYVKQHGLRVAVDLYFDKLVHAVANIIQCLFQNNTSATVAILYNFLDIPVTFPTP

[2] = target: T2, GFP-ORF40/41 (Kaposi's sarcoma-associated herpesvirus (KSHV, human herpesvirus 8)) (UniProt Q2HR92)
T2 sequence: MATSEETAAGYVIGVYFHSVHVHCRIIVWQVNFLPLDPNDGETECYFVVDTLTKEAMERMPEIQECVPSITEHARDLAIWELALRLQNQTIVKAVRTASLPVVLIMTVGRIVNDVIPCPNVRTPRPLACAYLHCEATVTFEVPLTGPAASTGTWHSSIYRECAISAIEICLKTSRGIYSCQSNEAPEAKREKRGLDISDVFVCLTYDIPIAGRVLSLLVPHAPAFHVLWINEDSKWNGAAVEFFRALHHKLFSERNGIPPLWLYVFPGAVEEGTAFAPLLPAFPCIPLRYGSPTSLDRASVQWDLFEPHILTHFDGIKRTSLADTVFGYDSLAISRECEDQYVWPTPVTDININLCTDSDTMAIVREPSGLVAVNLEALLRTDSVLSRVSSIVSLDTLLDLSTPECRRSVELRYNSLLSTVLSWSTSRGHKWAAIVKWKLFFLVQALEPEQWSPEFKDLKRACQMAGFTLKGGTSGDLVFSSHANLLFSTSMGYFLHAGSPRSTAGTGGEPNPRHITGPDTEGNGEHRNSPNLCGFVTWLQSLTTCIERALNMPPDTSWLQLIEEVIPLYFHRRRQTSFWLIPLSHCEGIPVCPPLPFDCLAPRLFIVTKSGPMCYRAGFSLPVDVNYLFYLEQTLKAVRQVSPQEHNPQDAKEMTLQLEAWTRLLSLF

[3] = target: T3, GFP-ORF44 (Kaposi's sarcoma-associated herpesvirus (KSHV, human herpesvirus 8)) (UniProt Q2HR89)
T3 sequence: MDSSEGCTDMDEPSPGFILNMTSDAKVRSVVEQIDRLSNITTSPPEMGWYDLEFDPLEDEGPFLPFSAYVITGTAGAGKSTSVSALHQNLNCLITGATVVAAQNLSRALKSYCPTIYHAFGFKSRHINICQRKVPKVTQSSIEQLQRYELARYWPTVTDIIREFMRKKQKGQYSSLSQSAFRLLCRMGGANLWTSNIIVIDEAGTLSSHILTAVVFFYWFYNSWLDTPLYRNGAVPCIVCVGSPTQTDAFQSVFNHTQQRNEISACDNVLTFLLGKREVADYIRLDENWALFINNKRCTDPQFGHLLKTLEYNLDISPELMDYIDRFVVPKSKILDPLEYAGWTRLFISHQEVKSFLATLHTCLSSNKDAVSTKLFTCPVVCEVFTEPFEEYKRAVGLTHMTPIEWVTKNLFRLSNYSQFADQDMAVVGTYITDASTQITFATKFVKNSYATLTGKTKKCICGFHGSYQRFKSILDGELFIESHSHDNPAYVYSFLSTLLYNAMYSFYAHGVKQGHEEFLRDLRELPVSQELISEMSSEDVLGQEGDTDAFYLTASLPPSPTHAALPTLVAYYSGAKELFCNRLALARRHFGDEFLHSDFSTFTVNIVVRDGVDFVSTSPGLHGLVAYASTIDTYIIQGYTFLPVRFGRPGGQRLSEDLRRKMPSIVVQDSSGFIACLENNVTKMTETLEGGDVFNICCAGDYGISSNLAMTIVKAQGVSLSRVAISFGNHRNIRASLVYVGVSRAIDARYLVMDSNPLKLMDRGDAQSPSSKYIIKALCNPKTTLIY

B1: VP16-ORF6 (natural protein)
chain: MALKGPQTLEENIGSAAPTGPCGYLYAYVTHNFPIGEASLLGNGYPEAKVFSLPLLHGLTVESDFPLNVKAVHKKIDATTASVKLTSYHREAIVFHNTHLFQPIFQGKGLEKLCRESRELFGFSTFVEQQHKGTLWSPEACPQLPCANEIFMAVIVTEGFKERLYGGKLVPVPSQTTPVHIGEHQAFKIPLYDEDLFGPSRAQELCRFYNPDISRYLHDSIFTGIAQALRVKDVSTVIQASERQFVHDQYKIPKLVQAKDFPQCASRGTDGSTLMVIDSLVAELGMSYGLSFIEGPQDSCEVLNYDTWPIFENCETPDARLRALEVWHAEQALHIGAQLFAANSVLYLTRVAKLPQKNQRGDANMYNSFYLQHGLGYLSEATVKENGASAFKGVPVSALDGSSYTLQHLAYASSFSPHLLARMCYYLQFLPHHKNTNSQSYNVVDYVGTAAPSQMCDLCQGQCPAVCINTLFYRMKDRFPPVLSNVKRDPYVITGTAGTYNDLEILGNFATFREREEEGNPVEDAPKYTYWQLCQNITEKLASMGISEGGDALRTLIVDIPSFVKVFKGIDSTVEAELLKFINCMIKNNYNFRENIKSVHHILQFACNVYWQAPCPVFLTLYYKSLLTVIQDICLTSCMMYEQDNPAVGIVPSEWLKMHFQTMWTNFKGACFDKGAITGGELKIVHQSMFCDLFDTDAAIGGMFAPARMQVRIARAMLMVPKTIKIKNRIIFSNSTGAESIQAGFMKPASQRDSYIVGGPYMKFLNALHKTLFPSTKTSALYLWHKIGQTTKNPILPGVSGEHLTELCNYVKASSQAFEEINVLDLVPDTLTSYAKIKLNSSILRACGQTQFYATTLSCLSPVTQLVPAEEYPHVLGPVGLSSPDEYRVKVAGRSVTIVQSTLKQAVSTNGRLRPIITVPLVVNKYTGSNGNTNVFHCANLGYFSGRGVDRNLRPESVPFKKNNVSSMLRKRHVIMTPLVDRLVKRIVGINSGEFEAEAVKRSVQNVLEDRDNPNLPKTVVLELVKHLGSSCASLTEEDVIYYLGPYAVLGDEVLSLLSTVGQAGVPWTAEGVASVIQDIIDDCELQFVGPEEPCLIQGQSVVEELFPSPGVPSLTVGKKRKIASLLSDLDL
notes: source: 293T, transfected, mammalian two-hybrid fusion
**Q.** How did the binding [1] turn out when B1 was run?
**A.** The binding was “no binding”.

**Q.** What about the binding [2] of the same binder?
**A.** The binding was “binds”.

**Q.** And the binding [3]?
**A.** Its binding is “no binding”.
